In PubChem BioAssay AID743266 (National Center for Advancing Translational Sciences (NCATS), 2014):
The whole screen tested about 410,000 compounds, of which about 310 (0.076%) were called active. The shares of active, inactive and inconclusive entries below differ from those in the screen. The call rests on the fitted dose curve; in most records, active means well fitted activation curve with a large enough effect; inconclusive means small, poorly fitted or top-dose-only effect, or another doubt; inactive means no such curve, though single readings can be large or run the other way. A potency beside an inconclusive call is a rough fit, not a confirmed value.

Sequences of proteins named here, by UniProt entry; tags and fusion partners are left off.
UniProt Q03431, whole entry, looked up: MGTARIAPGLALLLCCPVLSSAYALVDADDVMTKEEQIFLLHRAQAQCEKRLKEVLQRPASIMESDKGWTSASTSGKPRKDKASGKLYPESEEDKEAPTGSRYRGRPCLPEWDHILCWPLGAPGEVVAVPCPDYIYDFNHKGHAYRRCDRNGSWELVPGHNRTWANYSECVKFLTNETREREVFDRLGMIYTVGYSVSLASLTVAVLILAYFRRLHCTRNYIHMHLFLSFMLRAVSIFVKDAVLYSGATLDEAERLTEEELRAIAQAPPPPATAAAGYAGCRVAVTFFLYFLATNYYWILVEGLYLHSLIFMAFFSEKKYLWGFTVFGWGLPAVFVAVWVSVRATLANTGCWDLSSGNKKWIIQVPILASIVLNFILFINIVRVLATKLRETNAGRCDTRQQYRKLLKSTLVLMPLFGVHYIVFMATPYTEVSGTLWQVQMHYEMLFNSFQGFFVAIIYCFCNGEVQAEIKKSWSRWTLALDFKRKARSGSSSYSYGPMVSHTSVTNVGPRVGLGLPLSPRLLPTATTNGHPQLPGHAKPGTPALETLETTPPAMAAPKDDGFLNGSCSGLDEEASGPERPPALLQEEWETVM

Target: Parathyroid hormone/parathyroid hormone-related peptide receptor (Homo sapiens) (UniProt Q03431)
Assay: qHTS for PTHR1 Agonists: Primary Screen; further: nearly all actives have a fitted effect of over 55% in size
Details: HEK293 GP2 PTHR1 cells, GloSensor cAMP luminescence, 1 h; activation: at 115 µM (top of the series) unless noted; series mostly up to 115 µM
In short: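 HEK-293-derived GP2 cells expressing PTHR1 and a GloSensor cAMP reporter, 3,000/well, plated overnight, given luciferin plus IBMX (each 0.5 mM as added) for 1 h at 37 °C, then compound for 1 h at 37 °C. Luminescence was read after 15 min at room temperature.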
Potency means the concentration at half of the fitted maximal effect.

outcome, inactive:
COc1ccc(-c2ccc(OC)c([C@H]3[C@H]4C=CC[C@@H](C)[C@@H]4C(=O)N3Cc3ccccc3)c2)cc1C, Cc1occc1-c1nnc(SCC(=O)Nc2ccccc2-c2ccccc2)n1C, CNS(=O)(=O)c1cn(CC(=O)Nc2ccc(OC)c(Cl)c2)cc1S(=O)(=O)NC, CN(CC(=O)Nc1ccc(N2CCOCC2)cc1)CC(=O)Nc1ccc(Cl)cc1[N+](=O)[O-], Cc1cc(C)cc(NC(=O)C2CCCN2S(=O)(=O)c2cccc3nsnc23)c1 (stereo unspecified), O=C(Nc1cnc2ccccc2c1)c1ccncc1, Cn1ccnc1C(=O)c1cc(SCC(=O)NC2CC2)nc2ccccc12, CCCNC(=O)Nc1ccc(NC(C)=O)cc1, CC(NC(=O)c1cccs1)c1ccc(Cl)cc1 (stereo unspecified), Nc1nc2cc(Cl)c(Br)cc2o1, COc1ccccc1-c1noc(-c2cc(OC)c(OC)c(OC)c2)n1 inactive [at 57.5 µM], O=C(NC(=S)Nc1cccc2cc(O)ccc12)c1ccco1, CC(=O)Nc1ccc(N2CCN(C(=O)c3cccs3)CC2)cc1

activation, inactive:
O=C1c2ccccc2C(=O)c2c1ccc(O)c2O -17.3%, CCCNC1(C(N)=O)CCN(Cc2ccccc2)CC1 -16.2%, Cc1ccc(S(=O)(=O)N(CC(=O)NCCSc2ccccn2)c2cc(C)cc(C)c2)cc1 -11.9%, O=C1CCC(=O)N1CNc1ccc(Oc2ccccc2)cc1 -3.93% [at 57.5 µM], O=C1CC(c2ccc(O)c(O)c2)Oc2cc(O)cc(O)c21 (stereo unspecified) -6.31%, O=C(C1CCCCC1)N1CCCc2ccccc21 -7.52%, O=C1CCC/C(=N/NC(=O)c2sc3ccccc3c2Cl)C1 14%, COc1ccc(NC(=O)CSC2=Nc3ccccc3C3=NC(CC(=O)NCCc4ccccc4)C(=O)N23)cc1 (stereo unspecified) -30.9%, CCOC(=O)c1cc2c(=Cc3ccc(N(C)C)cc3)c3ccccc3n2[n+]1C -93.5%

activation, inconclusive:
NC(=S)N/N=C/c1ccc(-n2nncc2-c2ccc(Cl)cc2)cc1 -69.9% [activator], O=C1N/C(=N/S(=O)(=O)Cc2ccccc2)S/C1=C/c1ccc2c(c1)OCO2 48% [activator], Cc1cc(NC(=O)COc2ccccc2)cc(-c2nc3ccccc3o2)c1O 30.2% [activator], Cn1ncc2c(Nc3cccc(F)c3)ncnc21 34.3% [activator], Cc1cccc(N(C)C(=O)CSc2nc3ncccc3o2)c1 31.2% [activator], O=C(CSc1cccc[n+]1[O-])Nc1ccccc1C(F)(F)F -53.9% [activator], O=C1C2C(c3ccccc3)C=CC(c3ccccc3)C2C(=O)N1CCCO (stereo unspecified) -53% [activator] [at 57.5 µM], O=C(CSc1ccc2nnc(-c3ccccn3)n2n1)Nc1ccccc1 35.6% [activator], CC(C)(C)CNC(=O)c1cc2c(Br)ccc(Br)c2nc1N 37.8% [activator], CCc1ccccc1N1C(=O)CN(S(=O)(=O)CC)CC1(C)C(=O)NC1CCCCC1 (stereo unspecified) 64.7% [activator], COc1cc2c(cc1OC)[C@@H](NC(=O)Cc1ccc(F)cc1)[C@H](OCc1ccccc1)C2 31.6% [activator], COc1ccc(C(=O)NCCn2cc(SCc3ccc(C(F)(F)F)cc3)c3ccccc32)cc1OC -84.7% [activator], N=C(c1ccc([N+](=O)[O-])cc1)N1CCCCC1 35.1% [activator], CC(C)(C)Nc1ncnc2sc(-c3ccccc3)cc12 -47.4% [activator], Nc1ncnc2c1ncn2[C@@H]1O[C@H](CNC(=O)OC[C@@H](N)Cc2ccccc2)[C@@H](O)[C@H]1O 31% [activator], COc1ccc(OC)c(C2CC(=O)Oc3c2c(=O)n(C)c2ccccc32)c1 (stereo unspecified) 59% [activator], CCCCn1c(N)c(N(CCC(C)C)C(=O)c2[nH]c(C)c(C(=O)OCC)c2C)c(=O)[nH]c1=O 47.1% [activator], Cc1nn2c(C)c(C(=O)NC(C)c3ccccc3)cnc2c1-c1ccc(F)cc1 (stereo unspecified) 61.6% [activator]

Potency, inactive:
CN(C)CCNC(=O)Cn1ccc2cc(S(=O)(=O)N3CCCCCC3)ccc21

Potency, inconclusive:
c1cnc2ccc3ncccc3c2c1 44.7 µM [activator, partial curve, poor fit], O=C(NCc1ccccc1F)C1CCCN1S(=O)(=O)c1ccc(F)cc1 (stereo unspecified) 7.94 µM [activator, partial curve, poor fit], Cc1nnc(N2CCC(C(=O)NCCc3ccccc3)CC2)c2nn(-c3ccc(Cl)cc3)c(C)c12 141 µM [activator, single point], O=C1NC(c2ccccc2)C(C(=O)c2cccs2)C(O)(C(F)(F)F)N1 (stereo unspecified) 50.1 µM [activator, single point], CC(O)CNc1nc2c(c(=O)n(Cc3ccc(Cl)cc3)c(=O)n2C)n1C (stereo unspecified) 15.8 µM [activator, partial curve], Cc1ccc(S(=O)(=O)NCCC(=O)NCC(c2ccc(F)cc2)N2CCOCC2)cc1 (stereo unspecified) 15.8 µM [activator, partial curve], CCOc1cc2c3c(c1)C1(C(=O)N3C(C)(C)C=C2C)C(C#N)=C(N)Oc2cc(O)ccc21 (stereo unspecified) 5.01 µM [activator, partial curve], O=C(NCCc1ccc(Cl)cc1)C1CCN(S(=O)(=O)N2CCCCC2)CC1 1 µM [activator, partial curve, poor fit], CC(C)C(=O)NCC(c1ccc2c(c1)OCO2)N1CCN(c2ccccc2)CC1 (stereo unspecified) 63.1 µM [activator, partial curve, poor fit], OCCC1CN(CC2CCCCC2)CCN1C1CCCC1 (stereo unspecified) 20 µM [activator, partial curve, poor fit], COc1ccc(NC(=O)CCCNC(=O)Cn2cnc3sc4c(c3c2=O)CCCC4)c(OC)c1 20 µM [activator, partial curve, poor fit], COc1ccc(C2C(C(=O)Nc3cc(C)on3)c3ccccc3C(=O)N2C)cc1OC (stereo unspecified) 39.8 µM [activator, single point], Cc1ccc(-c2cc3c(n2-c2ccc(C)cc2)CC(C)(C)CC3=O)cc1 31.6 µM [activator, partial curve, poor fit], O=C(NCc1ccccc1Cl)c1ccccc1NC(=O)c1nsc2ccccc12 141 µM [activator, single point], Nc1nc(-c2ccc([N+](=O)[O-])cc2)c(C(=O)Nc2ccc(Cl)cc2)s1 7.08 µM [activator, full curve, poor fit], COc1ccc2nc(NC(=O)CS(=O)(=O)Cc3ccccc3)sc2c1 89.1 µM [activator, partial curve, poor fit], COc1ccc(C(=O)NC2(C(F)(F)F)C(=O)N(Cc3ccco3)C3=C2C(=O)CC(C)(C)C3)cc1OC (stereo unspecified) 50.1 µM [activator, partial curve, poor fit], CCNC(=O)C1(C)CCN(C(=O)c2ccccc2OC(F)(F)F)C1 (stereo unspecified) 10 µM [activator, full curve, poor fit], COc1ccc(CCNC(=O)CCC(=O)Nc2ccc3nc(N4CCN(C)CC4)cc(C)c3c2)cc1OC 7.94 µM [activator, full curve, poor fit], COCc1nnc(NC(=O)CCN2C(=O)c3ccccc3C2=O)s1 39.8 µM [activator, single point], OC1CCN(c2c3c(nc4cc(-c5cccc(F)c5)nn24)CCCC3)CC1 6.31 µM [activator, full curve, poor fit], CCC(C(=O)OC)n1c(-c2ccccc2)nc2ccccc2c1=O (stereo unspecified) 158 µM [activator, single point], CCOC(=O)C1=C(C)N(CCCC(=O)O)C(=O)NC1c1ccccc1Cl (stereo unspecified) 14.1 µM [activator, full curve], CCOc1cc(C)c(S(=O)(=O)Nc2ccc(Cl)cn2)cc1C 39.8 µM [activator, single point], O=C(Nc1cccc(Cl)c1)N(CCN1CCOCC1)Cc1ccccc1F 31.6 µM [activator, single point], Cc1nn2c(nc1=O)SCC(c1ccccc1)=N2 70.8 µM [activator, partial curve, poor fit], COc1ccc(CNC(=O)CSc2ncc3c(n2)-c2ccc(Cl)cc2N(Cc2ccccc2)S3(=O)=O)cc1 50.1 µM [activator, partial curve, poor fit], COc1cccc(OCCNC(=O)c2cc(OC)c(OC)c(OC)c2)c1 56.2 µM [activator, partial curve, poor fit], Cc1ccc2[nH]c(O)c(N=NC(N)=S)c2c1 126 µM [activator, single point], Fc1ccc(CSc2nnc(-c3cccnc3)n2Cc2ccco2)cc1 3.16 µM [activator, partial curve]
